{
  "source": "patent US20170304369A1",
  "about": "“METHODS OF DIFFERENTIATING STEM CELLS INTO LIVER CELL LINEAGES” (Agency for Science, Technology and Research, priority 2014, published 2017)",
  "key": {"[1]": {"tested_on": "hPSC-derived LB cells", "assay": "Hepatic progenitor specification from hPSC-derived LB cells (days 7-12), liver gene expression", "conditions": "for ALB expression: added to hPSC-derived LB cells", "protocol": "mTeSR1-grown hPSCs were cultured and differentiated as follows: • a) hPSCs cells were seeded at 1:12 as small clumps using Accutase (Millipore, Cat#SCR005) and Geltrex (Lifetech, Cat#A1413302). • b) Anterior Primitive Streak (day 1) was specified using Activin A (100 ng/ml), CHIR99021 (3 μM), PI-103 (50 nM) and Fgf2 (10 ng/ml) in serumless CDM2 basal medium for 24 hr. • c) Activin A (100 ng/ml) and DM3189 (250 nM) and PI-103 (50 nM) were added in the same basal medium for 24 hr to induce Definitive Endoderm (DE) (day 2). • d) DE was then patterned into PFG by using A83-01 (1 μM), RA (2 μM), BMP4 (30 ng/ml) and Fgf2 (10 ng/ml) in CDM KOSR basal media for another 24 hrs. • e) PFG was further differentiated to LB progenitors using Activin A (100 ng/ml), 8-bromo-CAMP (1 mM) and BMP4 (10 ng/ml) in CDM KOSR basal media for 3 days (day 4 to 6). • f) LB progenitors were treated with BMP4 (10 ng/ml), Oncostatin M (10 ng/ml), Dexamethasone ([…]), DAPT, C59 (1 μM) or RO4919097 (2 μM), forskolin ([…]), human recombinant insulin (10 μg/ml), ascorbic acid-2 phosphate (200 μg/ml), L-gluthathione ([…]) and amino acid concentrate and in IMDM/F12 media for the next 6 days (day 7 to 12) to induce hepatic progenitors. • g) Hepatic progenitors were treated with Dexamethasone (10 μM), RO4929097 (2 μM) or DAPT (10 μM), Forskolin (10 μM), human recombinant insulin (10 μg/ml), ascorbic acid-2 phosphate (200 μg/ml) in IMDM/F12 media for 6 days (day 13 to 18) to generate hepatocyte-like cells. Intra-Splenic Transplantation into FRG^−/− Mice\nRNA was extracted using Zymo RNA extraction kit. RT-quantitative PCR was used to quantify gene expression. Primer sequences were designed by NCBI Primer Tool and primer specificity and linearity was tested before usage for gene expression analyses.\nTo identify the signals that regulate the progression of the LB progenitors from an ALB- to a more differentiated ALB+ state, multiple signaling pathways were systematically screened for their effects on ALB expression (including FGF, WNT, Notch, HGF, cAMP/PKA, TGFβ, and BMP)."}, "[2]": {"tested_on": "PFG cells", "assay": "Liver bud (LB) specification from posterior foregut, days 4-6, gene expression", "format": "cell-based, human", "excerpt": "[…]\nRNA was extracted using Zymo RNA extraction kit. RT-quantitative PCR was used to quantify gene expression. […]"}, "[3]": {"tested_on": "hPSC-derived DE", "assay": "Foregut specification: treatment of hPSC-derived DE (day 3), downstream gene expression by RT-qPCR", "format": "cell-based, human", "conditions": "day 2 hPSC-derived DE treated with increasing doses", "excerpt": "RT-quantitative PCR was used to quantify gene expression. […] During liver development, populations of definitive endoderm cells are first patterned along the anterior-posterior axis to form either the foregut or mid/hindgut. In the present invention the effects of signaling inhibition on the developmental competence of the foregut cells to give rise to the liver bud (LB) cells was examined. Competence is defined as the capacity of one stem cell or progenitor cell to differentiate into its daughter cell type. For example, the posterior foregut is competent when it could give rise to its daughter cell types such as the pancreatic endoderm and LB cells."}},
  "note": "For at least one compound, name, drawing or mass did not settle the structure.",
  "data": [
    {"smiles": "C[C@@H]1C[C@H]2[C@@H]3CCC4=CC(=O)C=C[C@]4(C)[C@@]3(F)[C@@H](O)C[C@]2(C)[C@@]1(O)C(=O)CO", "note": "[DEX, dexamethasone]", "values": [
      {"measurement": "ALB expression", "setting": "[1]", "value": "promoted"},
      {"measurement": "ALB expression", "setting": "[1]; listed as Dexamethasone", "value": "increases"}
    ]},
    {"smiles": "C=C[C@@]1(C)CC(=O)[C@]2(O)[C@@]3(C)[C@@H](O)CCC(C)(C)[C@@H]3[C@H](O)[C@H](OC(C)=O)[C@@]2(C)O1", "note": "[Forskolin]", "values": [
      {"measurement": "expression of LB markers including AFP, CEBPA, HNF6, HNF1B, PROX1, TBX3 and HNF4A", "setting": "[2]; during LB specification", "value": "significantly increase"},
      {"measurement": "hepatic progenitor marker ALB expression", "setting": "[1]; days 9-12", "value": "promotes"}
    ]},
    {"smiles": "CC1=C(/C=C/C(C)=C/C=C/C(C)=C/C(=O)O)C(C)(C)CCC1", "note": "[RA, 3,7-Dimethyl-9-(2,6,6-trimethyl-1-cyclohexen-1-yl)-2E,4E,6E,8E,-nonatetraenoic acid]", "values": [
      {"measurement": "LB specification and expression of AFP, CEBPA, HNF6 and HNF4A", "setting": "[2]; later treatment (days 4-6)", "value": "inhibits"},
      {"measurement": "subsequent expression of AFP, HNF4A, and CEBPA in the LB cells (hepatic competence)", "setting": "[3]", "value": "increased"}
    ]}
  ]
}
